The structures given here were assigned with low confidence; some may be wrong.

Sequences of proteins named here, by UniProt entry; tags and fusion partners are left off.
UniProt Q9P2K8, whole entry: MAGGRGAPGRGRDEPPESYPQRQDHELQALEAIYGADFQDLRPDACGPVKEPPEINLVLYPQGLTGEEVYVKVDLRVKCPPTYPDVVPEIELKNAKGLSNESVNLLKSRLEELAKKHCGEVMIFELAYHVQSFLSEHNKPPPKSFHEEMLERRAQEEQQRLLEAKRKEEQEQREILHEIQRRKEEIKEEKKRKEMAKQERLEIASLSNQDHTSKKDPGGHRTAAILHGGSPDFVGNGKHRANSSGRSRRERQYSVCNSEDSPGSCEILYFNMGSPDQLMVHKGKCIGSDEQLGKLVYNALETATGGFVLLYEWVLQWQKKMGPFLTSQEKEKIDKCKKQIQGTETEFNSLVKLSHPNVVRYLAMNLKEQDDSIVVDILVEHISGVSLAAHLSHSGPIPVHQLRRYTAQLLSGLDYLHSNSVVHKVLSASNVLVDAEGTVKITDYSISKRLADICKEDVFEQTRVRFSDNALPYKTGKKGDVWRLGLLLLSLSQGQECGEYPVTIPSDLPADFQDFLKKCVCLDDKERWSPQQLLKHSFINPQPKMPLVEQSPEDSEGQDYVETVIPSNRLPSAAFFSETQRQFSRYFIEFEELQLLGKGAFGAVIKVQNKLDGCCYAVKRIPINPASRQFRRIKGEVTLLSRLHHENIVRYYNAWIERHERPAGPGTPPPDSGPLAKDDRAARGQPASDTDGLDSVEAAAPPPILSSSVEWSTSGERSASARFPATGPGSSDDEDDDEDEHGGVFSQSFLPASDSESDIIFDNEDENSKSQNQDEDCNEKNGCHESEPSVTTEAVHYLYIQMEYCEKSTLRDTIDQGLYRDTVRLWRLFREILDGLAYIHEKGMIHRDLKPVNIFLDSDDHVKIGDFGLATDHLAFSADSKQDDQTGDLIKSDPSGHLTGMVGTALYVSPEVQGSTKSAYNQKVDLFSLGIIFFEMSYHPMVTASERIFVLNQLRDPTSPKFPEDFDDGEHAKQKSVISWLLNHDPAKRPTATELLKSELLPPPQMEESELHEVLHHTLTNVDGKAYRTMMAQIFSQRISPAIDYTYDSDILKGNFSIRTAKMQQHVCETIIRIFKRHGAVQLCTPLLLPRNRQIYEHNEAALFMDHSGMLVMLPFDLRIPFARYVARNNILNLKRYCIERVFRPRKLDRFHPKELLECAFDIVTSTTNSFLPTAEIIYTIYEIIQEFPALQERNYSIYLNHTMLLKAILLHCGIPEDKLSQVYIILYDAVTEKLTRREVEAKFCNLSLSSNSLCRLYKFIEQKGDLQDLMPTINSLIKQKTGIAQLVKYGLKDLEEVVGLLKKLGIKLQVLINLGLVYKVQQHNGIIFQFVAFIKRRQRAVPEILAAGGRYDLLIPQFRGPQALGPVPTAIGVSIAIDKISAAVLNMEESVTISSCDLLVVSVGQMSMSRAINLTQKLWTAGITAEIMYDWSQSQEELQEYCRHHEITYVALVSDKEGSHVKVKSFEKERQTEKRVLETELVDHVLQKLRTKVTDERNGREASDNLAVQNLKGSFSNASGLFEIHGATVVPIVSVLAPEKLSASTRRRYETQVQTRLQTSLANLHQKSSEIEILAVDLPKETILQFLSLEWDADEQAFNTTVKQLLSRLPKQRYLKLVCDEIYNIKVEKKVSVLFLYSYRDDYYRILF

The target in this test is GCN2 kinase (Homo sapiens (Human), UniProt Q9P2K8). As to the kind of experiment: GCN2 Enzyme Inhibition Assay (Transcreener ADP2 fluorescence polarization). The format is biochemical. Particulars: read-out: GCN2 (IC50); 280 μM ATP, 200 μM (RS)7 peptide, 4 nM GCN2, 25° C.

Turning to `C[C@@H]1C[C@H](N=S(C)(C)=O)CN(c2ccnc(-c3cnc4cc(F)c(C5CC5)cn34)n2)C1`, the IC50 fell in the range of 10 to 100 nM.

The record behind these values is patent publication US10793563B2, “GCN2 inhibitors and uses thereof” (Merck Patent GmbH, priority 2018, dated 2020).
